Test results published in PMC11239810.
Results are given in words; binding and its absence hold for the method and conditions named. Binding seen in cells or lysates may run through a third protein. A yes stands for co-enrichment or nearness to the bait. Other partners may have been found. Sequences can lack the tags named with a protein.

Sequences of proteins named here, by UniProt entry; tags and fusion partners are left off.
UniProt P42224: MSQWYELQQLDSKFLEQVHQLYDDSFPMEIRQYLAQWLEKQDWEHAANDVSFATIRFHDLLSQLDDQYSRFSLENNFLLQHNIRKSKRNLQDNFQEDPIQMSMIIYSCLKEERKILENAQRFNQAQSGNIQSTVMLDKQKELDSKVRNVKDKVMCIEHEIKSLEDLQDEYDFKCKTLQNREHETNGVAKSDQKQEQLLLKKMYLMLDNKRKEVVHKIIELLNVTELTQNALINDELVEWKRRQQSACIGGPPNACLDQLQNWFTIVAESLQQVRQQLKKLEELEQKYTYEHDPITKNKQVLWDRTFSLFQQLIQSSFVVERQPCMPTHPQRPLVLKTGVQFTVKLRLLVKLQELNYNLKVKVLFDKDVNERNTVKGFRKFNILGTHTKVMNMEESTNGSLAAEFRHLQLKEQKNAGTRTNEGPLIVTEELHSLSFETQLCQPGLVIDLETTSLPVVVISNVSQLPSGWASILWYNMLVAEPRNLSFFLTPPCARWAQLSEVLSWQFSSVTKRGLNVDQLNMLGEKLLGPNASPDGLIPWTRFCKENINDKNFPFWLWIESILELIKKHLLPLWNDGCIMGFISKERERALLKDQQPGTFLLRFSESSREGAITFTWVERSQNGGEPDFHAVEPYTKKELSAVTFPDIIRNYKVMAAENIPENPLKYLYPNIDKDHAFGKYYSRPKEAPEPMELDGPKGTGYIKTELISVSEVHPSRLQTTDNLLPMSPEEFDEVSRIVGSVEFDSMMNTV

Molecular target: T1, Myc-tagged TRIM59 (tripartite motif 59) (UniProt Q922Y2)
T1 sequence: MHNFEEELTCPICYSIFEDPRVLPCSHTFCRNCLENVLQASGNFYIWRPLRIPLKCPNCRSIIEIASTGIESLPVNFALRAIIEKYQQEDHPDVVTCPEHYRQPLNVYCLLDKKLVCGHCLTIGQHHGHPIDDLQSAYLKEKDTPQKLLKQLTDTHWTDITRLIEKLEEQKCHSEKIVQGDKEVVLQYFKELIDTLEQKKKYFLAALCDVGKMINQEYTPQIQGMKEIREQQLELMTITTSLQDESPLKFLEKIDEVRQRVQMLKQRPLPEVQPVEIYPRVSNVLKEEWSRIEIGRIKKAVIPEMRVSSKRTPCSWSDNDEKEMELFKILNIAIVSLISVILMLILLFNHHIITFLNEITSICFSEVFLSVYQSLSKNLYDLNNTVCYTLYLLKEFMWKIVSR
Assay: affinity purification with mass spectrometry; HEK293T cells overexpressing Myc-tagged TRIM59; lysed at 4 °C; anti-Myc antibody and Protein G beads; NP-40 lysis buffer (1% NP-40, 50 mM Tris-HCl pH 7.4, 150 mM NaCl); mass spectrometry at BGI

binding: binds
Substance: STAT1 (endogenous, HEK293T) (from UniProt P42224 1-750)
